Tested on: SARS-CoV-2
Assay: microbe, parasite or virus in culture
Format: cell-based
Conditions: compounds from secondary screening

CN1CC2c3ccccc3Oc3ccc(Cl)cc3C2C1 (centres unmarked) [Asenapine]
Selectivity Index (SI) (CC50/IC50): >3.8 | IC50 (Severe acute respiratory syndrome coronavirus 2, Vero, 24 h, Vero cells, MOI 2, 24 h post-infection, 0.08–50 μM, read-out: IC50 antiviral activity): 13.3 µM
